The campaign covered roughly 52,000 sequences. About 210 (0.4%) were called active.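 How the source made its calls: active means gene whose silencing raises cell survival under the drug, median off-target-corrected z-score across its silencing RNAs 2 or more; inactive means the rest.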 This is one part of the list.
assay: Resistance to Poly (ADP-Ribose) Polymerase inhibitor: Gene Identification via Genome-wide siRNA Screen; conditions: mouse BRCA2 R2336H ES cells, olaparib, CellTiter-Glo viability; active compounds read high
How it was run: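 Mouse BRCA2 R2336H ES cells were reverse-transfected with siRNA (20 nM final), treated at 48 h with 500 nM olaparib, and read by CellTiter-Glo after 72 h. Scores: MAD-based z per siRNA, median per gene, seed off-target correction.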

Sequence	z-score
GGCUAAGAUUCAGGUCUUUTT against Crygs	inactive: 0.262
GGUAAAAUGGAACUACAUGTT against Igf2bp3	inactive: 0.173
GGAUGAUGUUCCCAUGCAATT against BC006933	inactive: -2.31
GGAUAACAGCACUUUCCAGTT against 2700062C07Rik	inactive: -0.372
GAAGCUCAUAGUGACUGUCTT against V1rc8	inactive: -1.95
CCGUUACCUUUUAAGCCUGTT against Socs6	inactive: -1.01
GGCCUUAGAUAGUUACAUATT against LOC209380	inactive: -0.061
GGAAAACACGUUCACUAUATT against Statip1	inactive: -0.794
GGUAUGAUUGAAUUUCGUGTT against Purg	inactive: -0.553
GCCACCUCUUAUGAGGCUUTT against D630045E04Rik	inactive: -1.04
GCUCUCUCCUGCGCUAAAUTT against Camta2	inactive: 4.41
CCAUUUAACCUGAUUCUGUTT against Cntn1	inactive: 0.367
GGACAACUAUGAAUUAGUGTT against Pfkp	inactive: -0.587
CCUUAUGUGCACUAUAGCCTT against 1700028K03Rik	inactive: 1.4
GGAUUGAGCAGUGUCUAGUTT against Otos	inactive: -0.622
GGUAGAACUGGAGUAUUCUTT against Arhgap4	inactive: 1.22
GGUCUCAAAUGAAACAAACTT against Upk3b	inactive: -0.362
CGAGACACACCUAAAUAUGTT against Nol5	inactive: 0.582
GCCCUCAUUUGUCCUACAUTT against Arhgef2	inactive: 0.0228
CCUCAAGAGAGCUACCGCATT against 1700018C11Rik	inactive: 0.313
GGCUUUUGUCAAGCAGCACTT against Ins2	inactive: -0.405
GGCUCUGCUGAAUAACCUGTT against Gcnt3	inactive: 0.208
GCAAGCAGAUCUGAUAUCATT against 2700050F09Rik	active: 4.76
CGACCAAUGGGACAAUGCATT against Prss12	inactive: 0.977
GGUUACAGCACUGAUUGUUTT against 2510006C20Rik	inactive: -1.97
GCUAUUUCAGGCACAAUAATT against Srprb	inactive: 0.681

Some of the entries so far, in markdown:

| Sequence | z-score |
| --- | --- |
| GGUAAAAUGGAACUACAUGTT against Igf2bp3 | inactive: 0.173 |
| GGAUGAUGUUCCCAUGCAATT against BC006933 | inactive: -2.31 |
| GGAUAACAGCACUUUCCAGTT against 2700062C07Rik | inactive: -0.372 |
| GAAGCUCAUAGUGACUGUCTT against V1rc8 | inactive: -1.95 |
| CCGUUACCUUUUAAGCCUGTT against Socs6 | inactive: -1.01 |
| GGCCUUAGAUAGUUACAUATT against LOC209380 | inactive: -0.061 |
| GGAAAACACGUUCACUAUATT against Statip1 | inactive: -0.794 |
| GGUAUGAUUGAAUUUCGUGTT against Purg | inactive: -0.553 |
| GCCACCUCUUAUGAGGCUUTT against D630045E04Rik | inactive: -1.04 |
| GCUCUCUCCUGCGCUAAAUTT against Camta2 | inactive: 4.41 |
| CCAUUUAACCUGAUUCUGUTT against Cntn1 | inactive: 0.367 |
| GGACAACUAUGAAUUAGUGTT against Pfkp | inactive: -0.587 |
| CCUUAUGUGCACUAUAGCCTT against 1700028K03Rik | inactive: 1.4 |
| GGAUUGAGCAGUGUCUAGUTT against Otos | inactive: -0.622 |
| GGUAGAACUGGAGUAUUCUTT against Arhgap4 | inactive: 1.22 |
| GGUCUCAAAUGAAACAAACTT against Upk3b | inactive: -0.362 |
| CGAGACACACCUAAAUAUGTT against Nol5 | inactive: 0.582 |
| GCCCUCAUUUGUCCUACAUTT against Arhgef2 | inactive: 0.0228 |
| CCUCAAGAGAGCUACCGCATT against 1700018C11Rik | inactive: 0.313 |
| GGCUUUUGUCAAGCAGCACTT against Ins2 | inactive: -0.405 |

More records follow.

Sequence	z-score
GCAGUCAUGAGAAAUACUATT against Irak1	inactive: -1.12
GGGAAUACAUUUUAUCUUCTT against Cpox	inactive: -0.0687
GGCAAUGCUGUCCUACUAUTT against Map2k5	inactive: 0.181
GGACUGAAGUGAAAUAAAUTT against B230359F08Rik	inactive: 0.692
CCAUCCUUGUUUUGUUAAUTT against Tnfrsf6	inactive: 2.28
GGCUGUUGUCAAUCCAGUUTT against Krtap5-4	inactive: 0.595
CCACUAUGGCGACCAGAUUTT against Mfap2	inactive: -3.19
GGGAACAAUCAAAAUUGGATT against Mta3	inactive: 0.215
GGCUUUCUCCCAGCAAUAGTT against Scrt1	inactive: -0.609
GGAAUUCAUUGAGUCUUGUTT against Kcnip2	inactive: 1.9
GGUUUGAAGAUGAUGCCUCTT against Nfkbil1	inactive: 0.415
CGACAGCAAAGUGGUUAAGTT against Upk2	inactive: -0.556
GCAGUUACACAUUUGAACATT against BC024479	inactive: -0.253
GGUCAUCGCUCAGUUAGAATT against 9630041N07	inactive: -1.04
GGUCAUCAUGAGCCCAUGUTT against Olfr1341	inactive: 0.0536
GGAGACUGUGAUUGAGAUGTT against 2500002L14Rik	inactive: 0.168
GGGUGCUACAAAAUUUGGATT against Arfgap1	inactive: 1.28
GGUUGUAGGAGAGGUAGAGTT against Sh3kbp1	inactive: 1.81
GGGCUUUCUUGGUUUUAUCTT against 8430408G22Rik	inactive: 1.33
GCUCUGUUAAGGAAGAACATT against Safb2	inactive: -0.406
GGUCGAAGUAUUGGAAAAUTT against Hesx1	inactive: 1.5
CCUACCUCACCGUAACUGUTT against Celsr1	inactive: -2.25
CCUGGAGUACAUAAAAGAUTT against Sh2d1a	inactive: -0.524
CCGGGCAAUUCAGCUGAACTT against Igsf3	inactive: 0.0966
GCUCUUAAGAGUCACCAAGTT against Wbscr27	inactive: -0.546
GUACUUUCCGCUGUUCCUCTT against Ltc4s	inactive: -0.00675

Sequence	z-score
CCCACAGUGCAAAAAUGACTT against Olfr663	inactive: 0.145
GGAAGACUGGGAAUAUAUCTT against Gga3	inactive: -2.8
GGUCCACUGAUUCUGAUAATT against BC013476	inactive: -0.156
GCCUCGUGUUGAAUCUUAATT against Pmp22	inactive: -0.632
CGAUCAUCGGCAUGUAUACTT against LOC333669	inactive: 0.0787
CCACAAGGUUCACAGAAAUTT against 2810048G17Rik	inactive: 0.787
GGGUAGCUAAGAAAAAGAUTT against C030048B08Rik	inactive: -0.549
CCUCAUUGUACAAGUAUCUTT against Hnt	inactive: -1.42
GGUCUUGGUGUAUAACAACTT against Rpo1-1	inactive: -1.22
CCUUUGUUACCACCACCAUTT against Olfr1331	inactive: 0.203
GGUGGUAACCAAUCAUUACTT against Cd200r1	inactive: 2.21
GGAAAUCAAGGAGCAGGAATT against S100b	inactive: 0.653
GGGAGCCACAUACAAAUACTT against AI326906	inactive: 1.11
GGCUUGUUCCUGUUCCUCUTT against Ndufc2	inactive: 0.204
GGCAUCAAGCAAUUCACUCTT against Zfp455	inactive: 0.222
GAACUGUACCAAACCCUACTT against Klk24	inactive: -0.536
CCCACCCAGGCAAUAAAAUTT against Fstl3	inactive: -0.417
GGACAAAAGGCUGAGCAUCTT against Flt1	inactive: -0.772
GGGAGAAUCGAUCCUUCACTT against 2310004L02Rik	inactive: 1.03
GCGAUUUGGCUUGCCAAGATT against Zfp622	inactive: -1.62
GGCUACAUCCCUGAACACUTT against Ndufb5	inactive: 0.655
CGCAAUCAUGAGCUUCGUCTT against Peci	inactive: 0.8
GGUCAGUUGAGAUGUUUUUTT against Pag	inactive: 0.105
GGAUGUUACAAAAGUCUGGTT against Wbscr16	inactive: -0.504
GGGAAUUUUUGUGGGUGAATT against Bbs2	inactive: 0.673
GGAUUUGCCUUAAAAAAUCTT against 6330411N01Rik	inactive: 0.296

Sequence	z-score
GUGCCUAGUUUUCUGCAUGTT against V1rj3	inactive: 1.61
GGACCAGUUAUCCUCACUGTT against 1810011O16Rik	inactive: 0.306
GGAAGUAAAAGAGGCUUUUTT against Olfr432	inactive: -1.2
GGGUGAGACUUUUAUUAUUTT against AU040950	inactive: 2.08
GGACCUGAGAGUUGUUUUGTT against Faim	inactive: 0.129
GGUAAACUCAAGUUUUCAGTT against Pib5pa	inactive: 1.26
CCGAAUCUGUCGUCAAGGUTT against Trem3	inactive: -0.346
CCUGGUAUCCAAGAGGAAGTT against Myt1	inactive: 0.477
GGCAAAGUGGUAGAAAAAATT against Lincr	inactive: -1.02
CGGCCAUUUACCAUACGUUTT against Slc15a1	inactive: 1.82
GGAGAUAAGAGAUCACAUCTT against BC019806	inactive: 0.00125
GGUCCGUCUGGUAAAAAGATT against Catna2	inactive: 0.794
GGGUUUGGGAACAUCGAUGTT against Angptl2	inactive: -0.724
CGGAGUUGGGAUUUACCAGTT against Pdir	inactive: 0.695
GGAUUAAAGGGUAACUUAGTT against 6530421E24Rik	inactive: -2.16
CCCGGUCAUAUAUGCCAUCTT against Gpr135	inactive: 2.9
GCCGUUGAGUAUAAAACUCTT against Stfa1	inactive: 0.335
CCACUCAGGAAAUGUUAAGTT against Mrpl53	inactive: 0.297
GCCUGUGGAGCCAAUCUACTT against Ephx2	inactive: 0.219
GGAUUCACCUGUUAUCUUUTT against Tapbpl	inactive: -0.499
GCUUCAAACCUCUUGCUCATT against Epb4.9	inactive: 0.527
GCCUAAGGAUCCUGGGUUATT against BC061259	inactive: -1.76
GGCUCUGUUGUCCUUGACCTT against Epb4.1l4a	inactive: 0.786
GGUGAUCCCGAAUGAUGAATT against MGC107514	inactive: 1.13
GGCCAUCUUUGACAGUGCUTT against Dnahc1	inactive: -0.103
GGUACCAUCACGUUGUGUATT against M6pr	inactive: -1.35

Source: PubChem BioAssay AID1347423 (Functional Genomics Laboratory (NCATS/FGL), 2020)
